Measurements reported in PubChem BioAssay AID1347076 (National Center for Advancing Translational Sciences (NCATS), 2019).
Hit rate of the full screen: of about 400,000 compounds, about 13,000 (3.2%) were called active. Inconclusive results, whose numbers are uncertain, are shown with a selection of clear calls. The call rests on the fitted dose curve; in most records, active means well fitted cell-killing curve with a large enough effect; inconclusive means small, poorly fitted or top-dose-only effect, or effect the other way; inactive means flat fitted curve, though single readings scatter. Potencies of inconclusive entries are doubtful fits and often do not repeat.

Experiment: qHTS assay for MDR1-selective chemotherapeutics: Primary screen using the drug-selected MDR subline cells KB-V1; further: nearly all actives have a fitted effect of over 60% in size
Settings: KB-V1 MDR cells viability, CellTiter-Glo, 72 h; activity change, negative = cytotoxicity: at 46.1 µM (top of the series)
Procedure, shortened: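 Drug-selected KB-V1 cells, grown in DMEM lacking phenol red with 10% FBS, receive compound titrations; after three days at 37 degrees C, surviving cell ATP is quantified by CellTiter-Glo luminescence and responses normalized and curve-fitted.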
On the % scale 0 is the no-effect control and ±100 the full control effect; potency means the concentration at half of the fitted maximal effect.

Q: With `O=c1c(O[C@H]2O[C@@H](CO)[C@H](O)[C@@H](O)[C@@H]2O)c(-c2ccc(O)cc2)oc2cc(O)cc(O)c12` as the compound, how does the Potency read?
A: Its Potency is inconclusive: 4.61 µM [rising, full curve, poor fit].

Q: For `Cc1cc(Cl)c(OCCCNC2CCCC2)c(Br)c1`, which Potency is on record?
A: Its Potency is inconclusive: 29.1 µM [cytotoxic, single point].

Q: Which Potency does the source give for `COc1cccc(N2[C@@H](CC(C)=O)c3ccccc3S2(=O)=O)c1` here?
A: The Potency was inconclusive: 18.4 µM [cytotoxic, partial curve].

Q: Which Potency does the source give for `CN1C(=O)/C(=C/c2ccc(C(=O)NC3CCCC3)cc2)Oc2ccccc21` here?
A: Its Potency is inconclusive: 1.84 µM [cytotoxic, full curve].

Q: Which Potency does the source give for `O=C(CCn1c(SCC(=O)c2ccccc2)nc2ccccc2c1=O)NCc1ccc(F)cc1` here?
A: Its Potency is active: 7.31 µM.

Q: For `Cc1cc(N2CCN(c3ccc(F)cc3)CC2)n2ncnc2n1`, which Potency is on record?
A: The Potency was inconclusive: 9.2 µM [cytotoxic, partial curve].

Q: With `Oc1ccc(-c2csc(-c3ccccc3)n2)cc1O` as the compound, how does the Potency read?
A: The Potency was active: 14.6 µM.

Q: Which Potency does the source give for `Cc1cc2c(cc1NC(=O)c1ccc(C(C)(C)C)cc1)n(C)c(=O)c(=O)n2C` here?
A: The Potency was inconclusive: 0.0058 µM [rising, full curve, poor fit].

Q: For `CCOc1ccc(C2/C(=C(/O)c3ccc4c(c3)CC(C)O4)C(=O)C(=O)N2CCCn2ccnc2)cc1` (stereo not drawn), which Potency is on record?
A: The Potency was inconclusive: 29.1 µM [rising, single point].

Q: Which Potency does the source give for `O=C(C1CC1)N1N=C(c2ccncc2)CC1(O)C(F)(F)F` (stereo not drawn) here?
A: Its Potency is inconclusive: 29.1 µM [rising, single point].

Q: Which Potency does the source give for `CC(C)c1ccc(NC(=O)c2cc(S(=O)(=O)N3CCCC3)c[nH]2)cc1` here?
A: Its Potency is inconclusive: 29.1 µM [cytotoxic, single point].

Q: With `CCn1c(SCC(=O)Nc2nccc(C)n2)nc2ccccc21` as the compound, how does the Potency read?
A: The Potency was inconclusive: 14.6 µM [cytotoxic, partial curve, poor fit].

Q: Which Potency does the source give for `COc1ccccc1NC(=S)N(Cc1ccccc1)Cc1cccnc1` here?
A: Its Potency is inconclusive: 6.51 µM [cytotoxic, partial curve, poor fit].

Q: For `NS(=O)(=O)c1ccc(CCNc2ncnc3sccc23)cc1`, which “activity change, negative = cytotoxicity” value is on record?
A: The value was inactive: -3.5%.

Q: Which “activity change, negative = cytotoxicity” value does the source give for `O=C(Nc1ccc(-c2nc3ccc(NC(=O)c4cccs4)cc3[nH]2)cc1)c1cccs1` here?
A: The value was inactive: 4.29%.

Q: With `Cc1cccc(OCC(=O)Nc2ccc(C(=O)OCc3cc(=O)n4nc(C5CC5)sc4n3)cc2)c1` as the compound, how does the “activity change, negative = cytotoxicity” value read?
A: The value was inactive: 6.28%.

Q: Which Potency does the source give for `CC(=O)c1c(C)[nH]c(C(=O)OCC(=O)c2ccc3c(c2)NC(=O)CO3)c1C` here?
A: The Potency was inconclusive: 29.1 µM [rising, single point].

Q: For `Cc1ccc(-c2noc(-c3cccnc3NCc3ccc(Cl)cc3)n2)cc1`, which “activity change, negative = cytotoxicity” value is on record?
A: The value was inactive: -2.46%.

Q: For `COc1ccccc1C(=O)NC(=O)COC(=O)C1CCC1`, which activity change, negative = cytotoxicity is on record?
A: Its activity change, negative = cytotoxicity is inconclusive: 30.7%.

Q: Which Potency does the source give for `Cc1cc(C)cc(-n2ncc3c2CCCC3NC(=O)C2(C(N)=O)CC2)c1` (stereo not drawn) here?
A: Its Potency is inconclusive: 23.1 µM [cytotoxic, single point].

Q: For `CN(C)c1ccc(NC(=O)c2sc(SCC(=O)Nc3ccc(Br)cc3)nc2N)cc1`, which Potency is on record?
A: The Potency was inconclusive: 29.1 µM [rising, single point].

Q: Which Potency does the source give for `Cc1ccnc(NC(=O)c2c(-c3ccccc3Cl)noc2C)c1` here?
A: The Potency was inconclusive: 16.4 µM [cytotoxic, single point].

Q: With `Cc1ccc(-c2noc(CN(C(=O)CCCN3C(=O)c4ccccc4C3=O)C(C)C)n2)cc1` as the compound, how does the Potency read?
A: Its Potency is inconclusive: 3.66 µM [cytotoxic, full curve].

Q: With `N/C(=N\OC(=O)Cc1ccccc1)c1ccccc1Cl` as the compound, how does the Potency read?
A: Its Potency is inconclusive: 0.517 µM [rising, full curve, poor fit].

Q: For `O=[N+]([O-])c1ccc(N2CCN(C(=S)Nc3ccccc3)CC2)cc1`, which “activity change, negative = cytotoxicity” value is on record?
A: The value was inactive: 7.28%.

Q: With `Cc1cc(OCC(=O)N2CCC(C(=O)O)CC2)c2c(C)c(C)c(=O)oc2c1` as the compound, how does the “activity change, negative = cytotoxicity” value read?
A: Its value is inactive: 9.69%.

Q: For `CC(C)CN1C(=O)CN(S(C)(=O)=O)CC1(C)C(=O)NCc1ccccc1` (stereo not drawn), which “activity change, negative = cytotoxicity” value is on record?
A: Its value is inactive: 10.6%.

Q: For `CC(CC1C(C#N)=C(N)OC2=C1C(=O)CCC2)c1ccccc1` (stereo not drawn), which Potency is on record?
A: The Potency was inconclusive: 29.1 µM [cytotoxic, partial curve, poor fit].

Q: Which Potency does the source give for `CCO[C@@H]1OC(C(=O)N2CCN(Cc3ccccc3)CC2)=C[C@H](c2ccc(Br)cc2)[C@H]1CCCO` here?
A: Its Potency is inconclusive: 16.4 µM [cytotoxic, single point].

Q: For `COCc1cc(C)nc2sc(C(=O)NCCO)c(-n3cccc3)c12`, which “activity change, negative = cytotoxicity” value is on record?
A: Its value is inactive: -7.77%.

Q: With `N#Cc1cccc(NC(=O)c2cc(C3CCCCN3S(=O)(=O)c3ccccc3)on2)c1` (stereo not drawn) as the compound, how does the Potency read?
A: Its Potency is inconclusive: 7.31 µM [cytotoxic, partial curve].

Q: For `COc1cccc(NC(=O)COc2ncnc3sc(C)c(C)c23)c1`, which “activity change, negative = cytotoxicity” value is on record?
A: Its value is inactive: 2.57%.

Q: With `Cc1cc(C)[n+](C)c2ccccc12` as the compound, how does the Potency read?
A: Its Potency is inconclusive: 14.6 µM [rising, partial curve].

Q: With `COc1ccccc1NC(=O)CN1CCN(CC(=O)Nc2ccc(OCc3ccccc3)cc2)CC1` as the compound, how does the Potency read?
A: The Potency was inconclusive: 29.1 µM [cytotoxic, single point].

Q: With `Cc1cccn2c(=O)c(/C=C(\C#N)C(=O)NCc3ccco3)c(N3CCCC(C)C3)nc12` (stereo not drawn) as the compound, how does the Potency read?
A: The Potency was inconclusive: 0.651 µM [cytotoxic, full curve].

Q: Which activity change, negative = cytotoxicity does the source give for `CCOc1cc(/C=N/NC(=O)C(=O)NCc2cccnc2)ccc1O` here?
A: Its activity change, negative = cytotoxicity is inconclusive: 47.2%.

Q: With `COc1ccc(N2CCN(C(=O)CN(Cc3ccccc3)S(C)(=O)=O)CC2)cc1` as the compound, how does the “activity change, negative = cytotoxicity” value read?
A: Its value is inactive: -18.3%.

Q: Which Potency does the source give for `Cn1nc(C(F)(F)F)c(C(=O)Nc2cccc(C(F)(F)F)c2)c1SCc1ccc(Cl)cc1` here?
A: Its Potency is active: 18.4 µM.

Q: For `C[C@H]1COC(=O)[C@@H](Cc2ccc(F)cc2)CC/C=C/C[C@@H](CC(=O)N(CCO)Cc2ccccc2)C(=O)N1`, which Potency is on record?
A: Its Potency is inconclusive: 29.1 µM [rising, single point].

Q: Which “activity change, negative = cytotoxicity” value does the source give for `Cc1cc(C)c(NC(=O)c2cc(CN3CCOCC3)on2)c(C)c1` here?
A: Its value is inactive: 2.82%.

Q: For `CCc1ccc(NC(=O)C(Cc2ccccc2)NS(=O)(=O)c2ccc3c(c2)CCN3C(C)=O)cc1` (stereo not drawn), which Potency is on record?
A: Its Potency is inconclusive: 23.1 µM [cytotoxic, single point].

Q: Which Potency does the source give for `COc1cccc(CNC(=O)[C@@H]2CCCN2C(=O)OC(C)(C)C)c1` here?
A: Its Potency is inconclusive: 20.6 µM [cytotoxic, partial curve].

Q: For `CCc1nc2c(OCCOc3ccccc3)cccn2c1N(C)C(=O)c1ccc(C)cc1`, which “activity change, negative = cytotoxicity” value is on record?
A: Its value is inactive: -0.447%.
